Results from PubChem BioAssay (NCATS).
Where “and” joins values, the source holds several entries; their conditions need not be identical. Equal entries are not always repeated. The list shows a part of the results. These are further read-outs of the screen, such as a control signal, another cell line or another target. No call is given for them. Most of these compounds were active or inconclusive in the main read-out, so they are no random draw. For part of these data: Words in brackets tell the shape of the fitted curve; partial curves, single points and poor fits give uncertain potencies.

The chains behind the UniProt entries cited, without tags or fusion partners. Where a name states a change or a piece, a line headed by the entry shows the natural chain unless it says otherwise.
UniProt P50135: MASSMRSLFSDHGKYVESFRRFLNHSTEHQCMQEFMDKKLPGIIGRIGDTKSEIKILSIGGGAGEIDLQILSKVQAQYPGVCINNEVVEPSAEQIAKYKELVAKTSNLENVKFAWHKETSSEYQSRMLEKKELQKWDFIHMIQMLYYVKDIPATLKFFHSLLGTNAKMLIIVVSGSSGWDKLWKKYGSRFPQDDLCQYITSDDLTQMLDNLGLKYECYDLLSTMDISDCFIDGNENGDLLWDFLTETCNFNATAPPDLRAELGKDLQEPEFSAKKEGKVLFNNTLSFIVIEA
UniProt P40261: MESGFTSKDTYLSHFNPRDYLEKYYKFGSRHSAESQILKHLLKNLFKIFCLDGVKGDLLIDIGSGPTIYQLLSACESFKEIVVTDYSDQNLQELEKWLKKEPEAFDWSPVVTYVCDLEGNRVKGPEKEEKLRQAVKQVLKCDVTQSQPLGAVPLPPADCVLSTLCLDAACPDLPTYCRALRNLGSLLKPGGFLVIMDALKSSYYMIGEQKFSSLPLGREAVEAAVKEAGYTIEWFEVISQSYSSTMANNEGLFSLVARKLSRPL

Key:
[1] = Validation of Assay for Modulators of Lamin A Splicing (AID 1459); details: Lamin A splicing dual RFP/GFP fluorescence reporter, ratio
How it was run: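 Readout: ratio of GFP (500-530 nm) to RFP (575-640 nm) total object intensity by 488 nm laser-scanning cytometry after 48 hrs. Cells were HeLa S3 clones carrying lamin A-EGFP minigene plus DsRed2 viability reporter; vehicle 0.5% DMSO final.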

[2] = qHTS Assay for Lipid Storage Modulators (AID 1519); details: Drosophila S3 cells, BODIPY lipid droplet/cell ratio, laser cytometry, cells loaded with oleic acid
How it was run: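 Cells seeded at 5,000 per well were treated with compounds over a concentration series and loaded with oleic acid (400 uM, as added). Lipid droplet fluorescence (488 nm excitation, 500-530 nm channel) was read by laser-scanning cytometry and normalized to 20 uM Triacsin C.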

[3] = Nrf2 qHTS screen for inhibitors: Validation (AID 493153); details: A549 ARE-Fluc reporter, 18-24 h; AC50: CellTiter-Fluor fluorescence read, measured here: cytotoxicity CellTiter-Fluor AC50; viability change: measured here: cytotoxicity max response
How it was run: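 Concentration-response on A549 ARE_Fluc reporter cells exposed 18-24 h at 37 C, 5% CO2. Cytotoxicity read first by CellTiter-Fluor fluorescence (Ex 405/Em 525), then Nrf2 inhibition by BugLite luminescence after 15 min.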

[4] = qHTS assay for small molecule antagonists of androgen receptor signaling (AID 588516); details: AR-UAS-bla HEK293, beta-lactamase ratio, antagonist mode, 16 h; measured here: W460 blue channel fit
How it was run: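 Cells were plated and incubated 5 h, compounds added in titration, then R1881 (10 nM final) as agonist. After 16 h at 37 C, CCF4 substrate was loaded for 2 h at room temperature and fluorescence measured.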

[5] = qHTS assay for small molecule antagonists of glucocorticoid receptor signaling (AID 588533); details: HeLa MMTV-bla, GRE beta-lactamase ratio, antagonist mode, 18 h; measured here: W530 channel AC50
[6] = qHTS assay for small molecule antagonists of peroxisome proliferator-activated receptor gamma signaling (AID 588537); details: HEK293 PPARg-UAS-bla, beta-lactamase ratio, antagonist mode; measured here: W460 blue channel
How it was run: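 Antagonist-mode β-lactamase reporter screen run as a titration series. HEK293 PPARγ-UAS-bla cells are stimulated with rosiglitazone (50 nM final) for 16 h, then CCF4 is read at 460/530 nm. Data are scaled between DMSO and rosiglitazone and fitted to the Hill equation.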

[7] = qHTS assay for small molecule agonists of retinoid X receptor alpha signaling (AID 588544); details: HEK293T RXRa-UAS-bla, beta-lactamase reporter, 18 h; 530 nm emission
[8] = qHTS assay for small molecule antagonists of retinoid X receptor alpha signaling (AID 588546); details: HEK293T RXRa-UAS-bla, beta-lactamase ratio, antagonist mode; measured here: W530 green channel, cytotoxicity proxy;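 also: cells stimulated with 9-cis-retinoic acid as agonist; % is scaled to controls: 0 for no effect and ±100 for the full control effect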
How it was run: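 Beta-lactamase reporter inhibition, read as CCF4 fluorescence ratio (ex 405, em 460/530 nm) after 2 h at RT. HEK293T UAS-bla cells, 2500/well, were stimulated with 9-cis-RA at 500 or 100 nM final alongside test compound for 18 h at 37 C.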

[9] = S16 Schwann cell PMP22 intronic element beta-lactamase assay (AID 624044); details: S16 rat Schwann cells, PMP22 element beta-lactamase FRET, 24 h
How it was run: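 Beta-lactamase reporter under a PMP22 intronic regulatory element in stable S16 rat Schwann cells; 24 h compound exposure. 460 nm blue signal normalized between DMSO (0%) and potassium clavulanate, with 535 nm FRET tracking viability; curves classed by r2 and response.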

[10] = qHTS Assay for Modulators of Human Peripheral Myelin Protein 22 (PMP22) Expression/Activity (AID 1967); details: Cell-based PMP22 reporter, dual-color luciferase ratio
How it was run: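 Mouse MSC80 Schwann line, Pmp22 promoter–CBG68 reporter, EF-alpha–CBR internal control. 24h compound exposure, 37 °C/5% CO2, DMEM + 10% FBS. Readout: corrected green/red luminescence ratio, normalized to untreated cells; concentration-response curves fitted and classified.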

[11] = qHTS Validation Assay to Find Inhibitors of Chronic Active B-Cell Receptor Signaling (AID 485345); details: ABC-DLBCL cells, chronic BCR signaling reporter
How it was run: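 Read-out: ratio of filter-corrected green (IkappaBalpha fusion) to red (native) luciferase signal in doxycycline-induced TMD8 cells after 4 h at 37C. Titration spanned 46 uM–3 nM; Data were normalised to basal cells and 10 uM MG-132 wells.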

[12] = A High-Content qHTS Against Drug Library for the Identification of Small Molecules that Inhibit DYT1 Early Onset Primary Dystonia-Associated Cell Pathology (AID 1645839); details: HEK293 Flp-In EGFP-delE TorsinA, punctate imaging, 48 h; measured here: cell count cytotoxicity
How it was run: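 High-content imaging quantified EGFP-TorsinA mislocalization in HEK293-derived cells inducibly expressing DYT1 mutant torsinA, after 48 h exposure to compound given together with tetracycline induction. Cell count served as a toxicity channel alongside %pathology.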

[13] = qHTS for identification of novel therapeutic agents for treatment of microphthalmiaassociated transcription factor (MiT) renal cell carcinoma (RCC) (AID 1963991); details: CellTiter-Glo, 48 h; for z-score: stronger effect = lower value
How it was run: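 Viability of three TFE3-fusion renal carcinoma lines measured by CellTiter-Glo after 48 h treatment with each of 1912 compounds at 11 concentrations. Responses scaled between DMSO (100%) and empty wells (0%) before curve fitting.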

[14] = target: Histamine N-methyltransferase (Homo sapiens) (UniProt P50135); test: Confirmatory Screen for Target Class Profiling of Small Molecule Inhibitors of Methyltransferases (AID 1745852); details: MTase-Glo luminescence, SAH detection, recombinant enzyme; measured here: HNMT inhibition potency
[15] = target: Nicotinamide N-methyltransferase (Homo sapiens) (UniProt P40261); test: as above; details: MTase-Glo luminescence, SAH detection, recombinant enzyme; measured here: NNMT inhibition potency
[16] = measured here: cell count channel max response
[17] = measured here: cell number channel AC50
[18] = measured here: lipid (BODIPY) channel AC50
[19] = measured here: lipid channel max response
[20] = measured here: 460 nm blue channel
[21] = measured here: green reporter channel AC50, mouse Pmp22 promoter in mouse Schwann cells
[22] = measured here: red reporter channel AC50, EF-alpha promoter control reporter in MSC80 mouse Schwann cells

Structure (SMILES): COc1cc2c(c(OC)c1OC)-c1ccc(OC)c(=O)cc1[C@@H](NC(C)=O)CC2
- AC50 ([1]; measured here: GFP channel): 0.0501 µM [falling, full curve]
- AC50 ([1]; measured here: RFP channel): 0.0708 µM [falling, full curve]
- max response [2, 16]: 60.7% and 42.4%
- AC50 [2, 17]: 3.55 µM [rising, partial curve]
- AC50 [2, 18]: 3.55 µM [rising, partial curve, poor fit]
- max response [2, 19]: 67.1% and 44.4%
- AC50 [3]: 0.0731 µM [falling, full curve, poor fit]
- viability change [3]: -18%
- AC50 [4]: 44.7 nM [falling, full curve, poor fit] and 14.1 nM [falling, full curve] and 126 nM [falling, full curve]
- AC50 [5]: 0.708 µM [falling, full curve, poor fit]
- AC50 [6]: 17.8 nM [falling, full curve, poor fit] and 1.78 nM [falling, full curve, poor fit] and 15.8 nM [falling, full curve, poor fit]
- max response [7]: 12.5% and 26.4% and -16.2%
- max response [8]: 6.8% and 1.57% and -8.04%
- AC50 [9, 20]: 0.141 µM [falling, full curve]
- AC50 ([9]; measured here: 530 nm viability channel): 0.1 µM [rising, full curve]

Structure (SMILES): COc1ccc2c(c1)/C(=C/c1cnc[nH]1)C(=O)N2
- AC50 ([1]; measured here: GFP channel): 35.5 µM [falling, single point]
- AC50 ([1]; measured here: RFP channel): 28.2 µM [falling, partial curve]
- max response [2, 16]: 50.1%
- AC50 [2, 17]: 35.5 µM [rising, single point]
- AC50 [2, 18]: 35.5 µM [rising, single point]
- max response [2, 19]: 50%
- AC50 [10, 21]: 95.3 µM [falling, single point]
- AC50 [10, 22]: 95.3 µM [falling, single point]
- AC50 ([11]; measured here: CBR control luciferase (viability counter)): 2.91 µM [rising, partial curve]

Structure (SMILES): Brc1c(Br)c(Br)c2n[nH]nc2c1Br
- AC50 ([1]; measured here: GFP channel): 22.4 µM [rising, single point]
- AC50 ([1]; measured here: RFP channel): 12.6 µM [falling, partial curve]

Structure (SMILES): CC(=O)c1c(O)c(C)c(O)c(Cc2c(O)c3c(c(C(=O)/C=C/c4ccccc4)c2O)OC(C)(C)C=C3)c1O
- AC50 ([1]; measured here: GFP channel): 15.8 µM [rising, single point]
- AC50 ([1]; measured here: RFP channel): 15.8 µM [rising, single point]
- max response [2, 16]: 54.8%
- AC50 [2, 17]: 0.708 µM [rising, full curve, poor fit]
- AC50 [2, 18]: 0.562 µM [rising, full curve]
- max response [2, 19]: 76.1%
- AC50 [10, 21]: 47.8 µM [falling, partial curve]
- AC50 [10, 22]: 47.8 µM [falling, partial curve]

Structure (SMILES): Fc1ccc(C(OCCN2CCN(CCCc3ccccc3)CC2)c2ccc(F)cc2)cc1
- AC50 ([1]; measured here: GFP channel): 10 µM [falling, partial curve]
- AC50 ([1]; measured here: RFP channel): 17.8 µM [falling, partial curve]
- max response [2, 16]: 9.55% and -78.5%
- AC50 [2, 17]: 44.7 µM [falling, partial curve, poor fit]
- AC50 [2, 18]: 44.7 µM [falling, partial curve, poor fit]
- max response [2, 19]: -75.1% and -89.5%
- AC50 [10, 21]: 21.3 µM [falling, full curve]
- AC50 [10, 22]: 16.9 µM [falling, full curve]
- AC50 ([11]; measured here: CBG/CBR ratio read-out): 29.1 µM [falling, single point]
- AC50 [3]: 25.9 µM [falling, partial curve, poor fit]
- viability change [3]: -24.6%
- AC50 [9, 20]: 14.1 µM [falling, full curve, poor fit]
- AC50 [12]: 7.08 µM [falling, partial curve, poor fit]
- z-score ([13]; TFE3-RCC UOK109 viability, measured here: UOK109 Z-AUC): 0.875
- z-score ([13]; TFE3-RCC viability, measured here: UOK124 Z-AUC): -0.313
- AC50 ([13]; TFE3-RCC viability, measured here: UOK124 cell viability): 16.6 µM [falling, partial curve]
- z-score ([13]; TFE3-RCC viability, measured here: UOK145 Z-AUC): 0.14
- AC50 ([13]; TFE3-RCC viability, measured here: UOK145 cell viability): 26.4 µM [falling, single point]

Structure (SMILES): O=C(O)C1C2CCC(O2)C1C(=O)O (stereo not drawn)
- AC50 ([1]; measured here: GFP channel): 10 µM [rising, partial curve]
- AC50 ([1]; measured here: RFP channel): 10 µM [rising, partial curve]
- max response [2, 16]: -45.2%
- AC50 [2, 18]: 22.4 µM [falling, full curve, poor fit]
- max response [2, 19]: -43.5%
- AC50 [10, 22]: 47.8 µM [falling, partial curve]
- max response [7]: -27.6%

Structure (SMILES): NC(=O)CI
- AC50 ([1]; measured here: GFP channel): 6.31 µM [falling, full curve]
- AC50 ([1]; measured here: RFP channel): 5.62 µM [falling, full curve]
- max response [2, 16]: -22.1%
- AC50 [2, 17]: 15.8 µM [falling, single point]
- AC50 [2, 18]: 15.8 µM [falling, single point]
- max response [2, 19]: -22.5%
- AC50 [10, 22]: 84.9 µM [falling, single point]
- IC50 [14]: 21.7 µM [falling, partial curve, poor fit]

Structure (SMILES): NC(CCCCCP(=O)(O)O)C(=O)O (stereo not drawn)
- AC50 ([1]; measured here: GFP channel): 35.5 µM [falling, single point]
- AC50 ([1]; measured here: RFP channel): 35.5 µM [falling, single point]

Structure (SMILES): C[C@]12Cc3cn4c(nc3C=C1CCC1C2CC[C@@]2(C)[C@H]1CC[C@@]2(O)C#N)nc1ccccc14 (stereo partly drawn)
- AC50 ([1]; measured here: GFP channel): 5.62 µM [falling, full curve]
- AC50 ([1]; measured here: RFP channel): 5.62 µM [falling, full curve]
- max response [2, 16]: -66.2%
- AC50 [2, 17]: 10 µM [falling, partial curve, poor fit]
- AC50 [2, 18]: 10 µM [falling, partial curve, poor fit]
- max response [2, 19]: -63%
- AC50 [10, 21]: 84.9 µM [falling, single point]
- AC50 [10, 22]: 23.9 µM [falling, partial curve]
- IC50 [15]: 21.7 µM [falling, partial curve]
